In the supplement of paper PMC8426693:
Some of the results follow.

Legend:
Assay in all cases: NMR binding call after quantification (hit when 2 of 3 NMR criteria are met) (binary (1 = binding, 0 = not binding)); higher = binding
Conditions in all cases: RNA concentration 10 µM; fragment concentration 200 µM; 293 K
SARS-CoV-2 3'-UTR RNA = test system: SARS-CoV-2 3'-UTR RNA
SARS-CoV-2 3_SL1 RNA = test system: SARS-CoV-2 3_SL1 RNA
SARS-CoV-2 3_SL1+2 RNA = test system: SARS-CoV-2 3_SL1+2 RNA
SARS-CoV-2 3_SL2 RNA = test system: SARS-CoV-2 3_SL2 RNA
SARS-CoV-2 3_SL3base RNA = test system: SARS-CoV-2 3_SL3base RNA
SARS-CoV-2 3_s2m RNA = test system: SARS-CoV-2 3_s2m RNA
SARS-CoV-2 5'-UTR RNA = test system: SARS-CoV-2 5'-UTR RNA
SARS-CoV-2 5_SL1 RNA = test system: SARS-CoV-2 5_SL1 RNA
SARS-CoV-2 5_SL1234 RNA = test system: SARS-CoV-2 5_SL1234 RNA
SARS-CoV-2 5_SL2+3 RNA = test system: SARS-CoV-2 5_SL2+3 RNA
SARS-CoV-2 5_SL4 RNA = test system: SARS-CoV-2 5_SL4 RNA
SARS-CoV-2 5_SL5 RNA = test system: SARS-CoV-2 5_SL5 RNA
SARS-CoV-2 5_SL5a RNA = test system: SARS-CoV-2 5_SL5a RNA
SARS-CoV-2 5_SL5b+c RNA = test system: SARS-CoV-2 5_SL5b+c RNA
SARS-CoV-2 5_SL5stem RNA = test system: SARS-CoV-2 5_SL5stem RNA
SARS-CoV-2 5_SL6 RNA = test system: SARS-CoV-2 5_SL6 RNA

Structure (SMILES) | NMR binding call (SARS-CoV-2 3'-UTR RNA) | NMR binding call (SARS-CoV-2 3_SL1 RNA) | NMR binding call (SARS-CoV-2 3_SL1+2 RNA) | NMR binding call (SARS-CoV-2 3_SL2 RNA) | NMR binding call (SARS-CoV-2 3_SL3base RNA) | NMR binding call (SARS-CoV-2 3_s2m RNA) | NMR binding call (SARS-CoV-2 5'-UTR RNA) | NMR binding call (SARS-CoV-2 5_SL1 RNA) | NMR binding call (SARS-CoV-2 5_SL1234 RNA) | NMR binding call (SARS-CoV-2 5_SL2+3 RNA) | NMR binding call (SARS-CoV-2 5_SL4 RNA) | NMR binding call (SARS-CoV-2 5_SL5 RNA) | NMR binding call (SARS-CoV-2 5_SL5a RNA) | NMR binding call (SARS-CoV-2 5_SL5b+c RNA) | NMR binding call (SARS-CoV-2 5_SL5stem RNA) | NMR binding call (SARS-CoV-2 5_SL6 RNA)
COc1cccc(C(N)CC(=O)O)c1 (stereo unspecified) | 0 | 0 | 0 | 0 | 0 | 0 | 0 | 0 | 0 | 0 | 0 | 0 | 0 | 0 | 0 | 0
Oc1ccccc1CN1CCOCC1 | 0 | 0 | 0 | 0 | 0 | 0 | 0 | 0 | 0 | 0 | 0 | 0 | 0 | 0 | 0 | 0
CN1CCC(Oc2cccc(F)c2)C1=O (stereo unspecified) | 0 | 0 | 0 | 0 | 0 | 0 | 0 | 0 | 0 | 0 | 0 | 0 | 0 | 0 | 0 | 0
COc1ccc(CNC(=O)c2csnn2)cc1 | 0 | 0 | 0 | 0 | 0 | 0 | 0 | 0 | 0 | 0 | 0 | 0 | 0 | 0 | 0 | 0
Cc1ccsc1CNC(C)(C)CO | 0 | 0 | 0 | 0 | 0 | 0 | 0 | 0 | 0 | 0 | 0 | 0 | 0 | 0 | 0 | 0
O=C(Nc1ccc(F)cc1F)Nn1cnnc1 | 0 | 0 | 0 | 0 | 0 | 0 | 0 | 0 | 0 | 0 | 0 | 0 | 0 | 0 | 0 | 0
CNS(=O)(=O)c1cccc(C)c1F | 0 | 0 | 0 | 0 | 0 | 0 | 0 | 0 | 0 | 0 | 0 | 0 | 0 | 0 | 0 | 0
COCC(=O)Nc1ccccc1 | 0 | 0 | 0 | 0 | 0 | 0 | 0 | 0 | 0 | 0 | 0 | 0 | 0 | 0 | 0 | 0
Cc1cc(C)nc(NC(=O)Nc2ccccc2)c1 | 0 | 0 | 0 | 0 | 0 | 0 | 0 | 0 | 0 | 0 | 0 | 0 | 0 | 0 | 0 | 0
CC(=O)N(C)c1ccccc1C(=O)O | 0 | 0 | 0 | 0 | 0 | 0 | 0 | 0 | 0 | 0 | 0 | 0 | 0 | 0 | 0 | 0
CN(C)C(=O)CNc1ccccc1 | 0 | 0 | 0 | 0 | 0 | 0 | 0 | 0 | 0 | 0 | 0 | 0 | 0 | 0 | 0 | 0
CC(=O)Nc1cccc2nonc12 | 0 | 0 | 0 | 0 | 0 | 0 | 0 | 0 | 0 | 0 | 0 | 0 | 0 | 0 | 0 | 0
CC(=O)NCC1(O)CCCC1 | 0 | 0 | 0 | 0 | 0 | 0 | 0 | 0 | 0 | 0 | 0 | 0 | 0 | 0 | 0 | 0
CC(C)C(=O)N1CCN(C(C)C)CC1 | 0 | 0 | 0 | 0 | 0 | 0 | 0 | 0 | 0 | 0 | 0 | 0 | 0 | 0 | 0 | 0
CCCC(=O)Nc1nnn(CC)n1 | 0 | 0 | 0 | 0 | 0 | 0 | 0 | 0 | 0 | 0 | 0 | 0 | 0 | 0 | 0 | 0
CNc1ncc(C(F)(F)F)cc1Cl | 0 | 0 | 0 | 0 | 0 | 0 | 0 | 0 | 0 | 0 | 0 | 0 | 0 | 0 | 0 | 0
CC(=O)Nc1ccc(F)c(C(=O)O)c1 | 0 | 0 | 0 | 0 | 0 | 0 | 0 | 0 | 0 | 0 | 0 | 0 | 0 | 0 | 0 | 0
CCc1csc(-c2c[nH]cn2)n1 | 0 | 0 | 0 | 0 | 0 | 0 | 0 | 0 | 0 | 0 | 0 | 0 | 0 | 0 | 0 | 0

Part of the list above, in CSV form:
Structure (SMILES),NMR binding call (SARS-CoV-2 3'-UTR RNA),NMR binding call (SARS-CoV-2 3_SL1 RNA),NMR binding call (SARS-CoV-2 3_SL1+2 RNA),NMR binding call (SARS-CoV-2 3_SL2 RNA),NMR binding call (SARS-CoV-2 3_SL3base RNA),NMR binding call (SARS-CoV-2 3_s2m RNA),NMR binding call (SARS-CoV-2 5'-UTR RNA),NMR binding call (SARS-CoV-2 5_SL1 RNA),NMR binding call (SARS-CoV-2 5_SL1234 RNA),NMR binding call (SARS-CoV-2 5_SL2+3 RNA),NMR binding call (SARS-CoV-2 5_SL4 RNA),NMR binding call (SARS-CoV-2 5_SL5 RNA),NMR binding call (SARS-CoV-2 5_SL5a RNA),NMR binding call (SARS-CoV-2 5_SL5b+c RNA),NMR binding call (SARS-CoV-2 5_SL5stem RNA),NMR binding call (SARS-CoV-2 5_SL6 RNA)
Oc1ccccc1CN1CCOCC1,0,0,0,0,0,0,0,0,0,0,0,0,0,0,0,0
Cc1cc(C)nc(NC(=O)Nc2ccccc2)c1,0,0,0,0,0,0,0,0,0,0,0,0,0,0,0,0

Going on with the list.

Structure (SMILES) | NMR binding call (SARS-CoV-2 3'-UTR RNA) | NMR binding call (SARS-CoV-2 3_SL1 RNA) | NMR binding call (SARS-CoV-2 3_SL1+2 RNA) | NMR binding call (SARS-CoV-2 3_SL2 RNA) | NMR binding call (SARS-CoV-2 3_SL3base RNA) | NMR binding call (SARS-CoV-2 3_s2m RNA) | NMR binding call (SARS-CoV-2 5'-UTR RNA) | NMR binding call (SARS-CoV-2 5_SL1 RNA) | NMR binding call (SARS-CoV-2 5_SL1234 RNA) | NMR binding call (SARS-CoV-2 5_SL2+3 RNA) | NMR binding call (SARS-CoV-2 5_SL4 RNA) | NMR binding call (SARS-CoV-2 5_SL5 RNA) | NMR binding call (SARS-CoV-2 5_SL5a RNA) | NMR binding call (SARS-CoV-2 5_SL5b+c RNA) | NMR binding call (SARS-CoV-2 5_SL5stem RNA) | NMR binding call (SARS-CoV-2 5_SL6 RNA)
Oc1ccccc1CN1CCc2ccccc2C1 | 0 | 0 | 0 | 0 | 0 | 0 | 0 | 0 | 0 | 0 | 0 | 0 | 0 | 0 | 0 | 0
Cc1nc(-c2ccccc2)no1 | 0 | 0 | 0 | 0 | 0 | 0 | 0 | 0 | 0 | 0 | 0 | 0 | 0 | 0 | 0 | 0
c1ccc(CCNc2nc3ccccc3[nH]2)cc1 | 1 | 0 | 0 | 0 | 0 | 0 | 1 | 0 | 0 | 0 | 0 | 0 | 0 | 0 | 0 | 0
CN1CCN(C(=O)Nc2ccc(F)cc2)CC1 | 0 | 0 | 0 | 0 | 0 | 0 | 0 | 0 | 0 | 0 | 0 | 0 | 0 | 0 | 0 | 0
CC(=O)Nc1cccc(NC(N)=O)c1 | 0 | 0 | 0 | 0 | 0 | 0 | 0 | 0 | 0 | 0 | 0 | 0 | 0 | 0 | 0 | 0
Cc1ncsc1C(=O)N1CCCNCC1.Cl.Cl | 0 | 0 | 0 | 0 | 0 | 0 | 0 | 0 | 0 | 0 | 0 | 0 | 0 | 0 | 0 | 0
COc1ccc(NCc2ccc(F)cc2)cc1 | 0 | 0 | 0 | 0 | 0 | 0 | 0 | 0 | 0 | 0 | 0 | 0 | 0 | 0 | 0 | 0
Cc1csc(CNC(=O)c2cc[nH]n2)n1 | 0 | 0 | 0 | 0 | 0 | 0 | 0 | 0 | 0 | 0 | 0 | 0 | 0 | 0 | 0 | 0
CS(=O)(=O)NCCc1ccccc1 | 0 | 0 | 0 | 0 | 0 | 0 | 0 | 0 | 0 | 0 | 0 | 0 | 0 | 0 | 0 | 0
Cc1cc(NC(=O)CSc2ccccc2)no1 | 0 | 0 | 0 | 0 | 0 | 0 | 0 | 0 | 0 | 0 | 0 | 0 | 0 | 0 | 0 | 0
CCc1ccc(NC(=O)c2cnccn2)cc1 | 0 | 0 | 0 | 0 | 0 | 0 | 0 | 0 | 0 | 0 | 0 | 0 | 0 | 0 | 0 | 0
CC(=O)Nc1ccc(C#N)cc1 | 0 | 0 | 0 | 0 | 0 | 0 | 0 | 0 | 0 | 0 | 0 | 0 | 0 | 0 | 0 | 0
CCOC(=O)N1CCOCC1 | 0 | 0 | 0 | 0 | 0 | 0 | 0 | 0 | 0 | 0 | 0 | 0 | 0 | 0 | 0 | 0
COC(=O)Nc1nnc(CC2CCCC2)s1 | 0 | 0 | 0 | 0 | 0 | 0 | 0 | 0 | 0 | 0 | 0 | 0 | 0 | 0 | 0 | 0
COc1ccc(C(=O)Nc2ccccc2F)cc1 | 1 | 0 | 0 | 0 | 0 | 0 | 0 | 0 | 0 | 0 | 0 | 0 | 0 | 0 | 0 | 0
NC(=O)C(O)C1CCOCC1 (stereo unspecified) | 0 | 0 | 0 | 0 | 0 | 0 | 0 | 0 | 0 | 0 | 0 | 0 | 0 | 0 | 0 | 0
CC(C)N1CCCC(CO)C1 (stereo unspecified) | 0 | 0 | 0 | 0 | 0 | 0 | 0 | 0 | 0 | 0 | 0 | 0 | 0 | 0 | 0 | 0
CC1CCCCN1C(=O)c1cnccn1 (stereo unspecified) | 0 | 0 | 0 | 0 | 0 | 0 | 0 | 0 | 0 | 0 | 0 | 0 | 0 | 0 | 0 | 0
